Assay results from publication doi:10.1101/2023.03.22.533843.
Read-outs that look alike come from different tables or passages of the source. These are yes or no findings as the source states them, for the method shown. In cells and extracts the contact can be indirect. These calls come from enrichment with a bait or labelling near it, and not all partners need be listed. For some of these results: A no says only that the protein was not detected with the bait.

Protein sequences, listed by entry. Tags and fused reporters are not part of them.
UniProt Q9UHV9: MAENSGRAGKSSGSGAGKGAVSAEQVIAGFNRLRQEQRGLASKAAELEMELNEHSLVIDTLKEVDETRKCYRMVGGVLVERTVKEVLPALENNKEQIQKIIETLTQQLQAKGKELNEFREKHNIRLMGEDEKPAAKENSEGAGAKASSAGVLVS
UniProt Q9UBK9: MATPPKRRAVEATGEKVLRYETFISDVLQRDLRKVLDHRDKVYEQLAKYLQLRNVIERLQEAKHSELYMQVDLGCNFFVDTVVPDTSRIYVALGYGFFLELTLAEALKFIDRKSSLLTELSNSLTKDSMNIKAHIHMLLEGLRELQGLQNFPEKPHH
UniProt Q9NWS0: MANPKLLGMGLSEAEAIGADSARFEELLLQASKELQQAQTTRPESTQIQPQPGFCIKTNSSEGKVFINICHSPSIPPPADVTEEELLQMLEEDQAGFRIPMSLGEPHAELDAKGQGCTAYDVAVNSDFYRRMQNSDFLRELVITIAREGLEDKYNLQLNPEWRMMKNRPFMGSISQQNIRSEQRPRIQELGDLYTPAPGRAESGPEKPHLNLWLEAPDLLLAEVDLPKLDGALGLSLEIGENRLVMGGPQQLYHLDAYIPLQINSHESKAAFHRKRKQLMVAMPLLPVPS
UniProt Q9H6T3: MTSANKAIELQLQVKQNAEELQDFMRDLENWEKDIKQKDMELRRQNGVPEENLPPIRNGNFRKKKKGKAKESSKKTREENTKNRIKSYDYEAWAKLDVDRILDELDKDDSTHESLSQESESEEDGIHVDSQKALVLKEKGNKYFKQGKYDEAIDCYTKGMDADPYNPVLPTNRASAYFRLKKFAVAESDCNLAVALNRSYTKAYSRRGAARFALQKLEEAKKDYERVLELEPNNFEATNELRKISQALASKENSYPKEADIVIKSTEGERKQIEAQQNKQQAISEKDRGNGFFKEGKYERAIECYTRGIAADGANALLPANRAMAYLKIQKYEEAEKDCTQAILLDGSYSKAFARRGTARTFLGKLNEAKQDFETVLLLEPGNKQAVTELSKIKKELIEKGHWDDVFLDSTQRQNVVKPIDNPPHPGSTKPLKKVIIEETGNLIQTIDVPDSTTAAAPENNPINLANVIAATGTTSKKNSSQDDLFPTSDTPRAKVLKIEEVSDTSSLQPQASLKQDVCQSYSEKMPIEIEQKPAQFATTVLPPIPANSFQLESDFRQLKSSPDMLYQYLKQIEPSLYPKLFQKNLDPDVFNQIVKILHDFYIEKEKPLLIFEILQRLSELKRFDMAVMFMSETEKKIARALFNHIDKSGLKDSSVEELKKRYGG
UniProt Q9Y265: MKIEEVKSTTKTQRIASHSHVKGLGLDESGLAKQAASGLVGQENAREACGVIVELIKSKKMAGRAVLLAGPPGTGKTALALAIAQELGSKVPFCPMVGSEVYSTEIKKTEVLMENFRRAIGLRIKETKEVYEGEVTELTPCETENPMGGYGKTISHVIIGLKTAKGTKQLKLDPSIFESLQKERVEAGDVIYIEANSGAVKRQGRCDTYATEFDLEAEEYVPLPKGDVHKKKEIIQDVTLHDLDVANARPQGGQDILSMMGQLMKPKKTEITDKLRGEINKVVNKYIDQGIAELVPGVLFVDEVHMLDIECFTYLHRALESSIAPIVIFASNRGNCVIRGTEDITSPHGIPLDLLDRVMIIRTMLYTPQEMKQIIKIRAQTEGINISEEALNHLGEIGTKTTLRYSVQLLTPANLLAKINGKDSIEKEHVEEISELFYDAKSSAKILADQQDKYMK
UniProt Q9Y230: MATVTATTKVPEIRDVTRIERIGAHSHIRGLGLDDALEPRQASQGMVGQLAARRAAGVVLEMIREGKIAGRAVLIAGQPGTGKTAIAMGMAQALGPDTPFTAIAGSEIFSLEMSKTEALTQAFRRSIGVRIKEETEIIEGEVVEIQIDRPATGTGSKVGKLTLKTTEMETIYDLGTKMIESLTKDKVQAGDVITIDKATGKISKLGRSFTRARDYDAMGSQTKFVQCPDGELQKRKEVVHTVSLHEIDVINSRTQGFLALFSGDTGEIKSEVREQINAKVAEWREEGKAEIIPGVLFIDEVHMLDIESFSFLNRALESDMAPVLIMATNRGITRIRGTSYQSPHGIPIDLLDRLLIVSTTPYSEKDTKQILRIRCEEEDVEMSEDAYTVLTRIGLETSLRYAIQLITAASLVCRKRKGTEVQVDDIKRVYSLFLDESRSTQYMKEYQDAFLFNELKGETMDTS
UniProt Q9NUG6: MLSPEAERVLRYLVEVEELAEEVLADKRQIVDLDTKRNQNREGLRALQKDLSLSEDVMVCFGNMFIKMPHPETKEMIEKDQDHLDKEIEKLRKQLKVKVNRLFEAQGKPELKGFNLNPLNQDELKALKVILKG
UniProt O60925: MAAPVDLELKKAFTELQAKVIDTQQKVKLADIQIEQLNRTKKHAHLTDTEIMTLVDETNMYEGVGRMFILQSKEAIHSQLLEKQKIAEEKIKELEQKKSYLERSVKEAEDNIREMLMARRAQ
UniProt Q99471: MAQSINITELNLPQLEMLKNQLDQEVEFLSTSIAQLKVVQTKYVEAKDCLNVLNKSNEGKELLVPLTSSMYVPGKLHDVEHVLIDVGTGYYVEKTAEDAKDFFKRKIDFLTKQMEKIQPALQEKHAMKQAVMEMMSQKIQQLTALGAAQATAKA
UniProt P61758: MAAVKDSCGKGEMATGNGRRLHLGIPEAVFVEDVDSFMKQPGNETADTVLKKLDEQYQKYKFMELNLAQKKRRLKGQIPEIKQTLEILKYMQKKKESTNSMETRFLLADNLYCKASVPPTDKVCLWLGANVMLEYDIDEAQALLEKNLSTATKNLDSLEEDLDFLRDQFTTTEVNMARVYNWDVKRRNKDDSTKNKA
UniProt L0R819: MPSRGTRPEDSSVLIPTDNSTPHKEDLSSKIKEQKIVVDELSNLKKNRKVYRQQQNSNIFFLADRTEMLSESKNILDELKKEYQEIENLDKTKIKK
UniProt P08238: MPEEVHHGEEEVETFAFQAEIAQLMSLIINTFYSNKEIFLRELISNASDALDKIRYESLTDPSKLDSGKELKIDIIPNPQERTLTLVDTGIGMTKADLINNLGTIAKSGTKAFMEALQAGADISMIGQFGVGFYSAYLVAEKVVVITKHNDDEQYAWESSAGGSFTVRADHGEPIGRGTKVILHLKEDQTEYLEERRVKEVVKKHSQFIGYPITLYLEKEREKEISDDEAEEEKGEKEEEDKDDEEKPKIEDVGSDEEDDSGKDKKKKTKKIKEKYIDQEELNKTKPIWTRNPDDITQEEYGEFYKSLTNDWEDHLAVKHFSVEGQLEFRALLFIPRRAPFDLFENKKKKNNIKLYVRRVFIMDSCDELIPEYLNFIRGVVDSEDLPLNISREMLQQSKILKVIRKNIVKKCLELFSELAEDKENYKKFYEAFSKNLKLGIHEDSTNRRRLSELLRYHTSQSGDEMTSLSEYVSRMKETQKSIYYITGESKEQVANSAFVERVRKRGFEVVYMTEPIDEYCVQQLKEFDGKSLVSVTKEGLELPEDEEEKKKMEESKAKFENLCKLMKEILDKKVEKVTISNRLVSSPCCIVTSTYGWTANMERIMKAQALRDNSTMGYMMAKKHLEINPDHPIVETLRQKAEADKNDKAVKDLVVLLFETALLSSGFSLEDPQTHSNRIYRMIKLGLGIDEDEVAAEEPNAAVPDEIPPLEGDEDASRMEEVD
UniProt Q58FF6: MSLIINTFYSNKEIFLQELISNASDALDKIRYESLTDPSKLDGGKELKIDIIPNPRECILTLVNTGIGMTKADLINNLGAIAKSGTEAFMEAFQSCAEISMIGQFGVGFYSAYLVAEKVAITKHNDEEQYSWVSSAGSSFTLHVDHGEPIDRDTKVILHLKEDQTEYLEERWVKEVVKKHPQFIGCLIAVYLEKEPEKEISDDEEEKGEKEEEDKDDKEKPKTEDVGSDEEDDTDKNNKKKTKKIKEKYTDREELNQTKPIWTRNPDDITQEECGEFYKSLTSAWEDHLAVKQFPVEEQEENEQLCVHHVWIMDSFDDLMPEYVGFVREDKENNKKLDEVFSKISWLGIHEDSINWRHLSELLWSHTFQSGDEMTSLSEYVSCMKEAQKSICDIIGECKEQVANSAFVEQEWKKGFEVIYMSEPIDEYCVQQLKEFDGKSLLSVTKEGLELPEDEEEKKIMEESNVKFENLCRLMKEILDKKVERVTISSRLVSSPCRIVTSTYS
UniProt P34931: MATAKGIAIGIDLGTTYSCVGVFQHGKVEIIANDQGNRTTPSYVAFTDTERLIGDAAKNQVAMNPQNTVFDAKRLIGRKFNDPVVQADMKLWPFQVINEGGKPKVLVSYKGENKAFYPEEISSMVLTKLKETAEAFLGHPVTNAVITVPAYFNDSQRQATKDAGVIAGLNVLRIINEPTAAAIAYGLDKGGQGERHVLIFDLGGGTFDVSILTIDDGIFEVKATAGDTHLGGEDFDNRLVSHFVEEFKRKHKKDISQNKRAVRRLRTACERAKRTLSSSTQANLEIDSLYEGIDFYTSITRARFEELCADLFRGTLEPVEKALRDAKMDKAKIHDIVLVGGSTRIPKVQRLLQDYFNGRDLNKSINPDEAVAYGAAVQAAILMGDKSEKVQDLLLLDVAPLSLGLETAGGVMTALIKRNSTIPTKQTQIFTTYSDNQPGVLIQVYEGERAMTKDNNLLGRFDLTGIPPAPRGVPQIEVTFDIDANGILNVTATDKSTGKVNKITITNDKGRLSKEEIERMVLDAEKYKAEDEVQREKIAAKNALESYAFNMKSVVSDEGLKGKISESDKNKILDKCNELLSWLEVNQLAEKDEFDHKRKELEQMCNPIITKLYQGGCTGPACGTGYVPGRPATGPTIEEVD
UniProt Q9NQP4: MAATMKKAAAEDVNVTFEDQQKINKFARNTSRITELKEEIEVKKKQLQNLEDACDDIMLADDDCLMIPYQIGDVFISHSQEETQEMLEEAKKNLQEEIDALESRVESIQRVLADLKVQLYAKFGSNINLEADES
UniProt O15212: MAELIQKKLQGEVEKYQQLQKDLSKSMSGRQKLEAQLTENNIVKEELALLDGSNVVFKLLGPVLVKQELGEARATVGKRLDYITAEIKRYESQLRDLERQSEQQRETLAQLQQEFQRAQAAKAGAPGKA

How the values were obtained:
Assay in all cases: affinity purification with mass spectrometry
[1] = biological target: SH-tagged PFDN2 (prefoldin subunit 2) (human) (UniProt Q9UHV9)
SH-tagged UXT (human) [2] = biological target: SH-tagged UXT (human) (UniProt Q9UBK9)
[3] = biological target: SH-tagged PFDN2 (prefoldin subunit 2) (human) (UniProt Q9UHV9); remark: listed apart in the source
SH-tagged PIH1D1 (human) = SH-tagged PIH1D1 (human) (UniProt Q9NWS0)
SH-tagged RPAP3 (human) = SH-tagged RPAP3 (human) (UniProt Q9H6T3)
SH-tagged RUVBL1 (human) = SH-tagged RUVBL1 (human) (UniProt Q9Y265)
SH-tagged RUVBL2 (human) = SH-tagged RUVBL2 (human) (UniProt Q9Y230)
SH-tagged UXT (human) [4] = biological target: SH-tagged UXT (human) (UniProt Q9UBK9); remark: listed apart in the source
[5] = biological target: tagged PDRG1 (AP-MS bait) (human) (UniProt Q9NUG6)
[6] = biological target: PIH1D1 (endogenous prey) (human (endogenous in HEK293)) (UniProt Q9NWS0)
[7] = biological target: RPAP3 (endogenous prey) (human (endogenous in HEK293)) (UniProt Q9H6T3)
SH-tagged PFDN1 (human) = SH-tagged PFDN1 (human) (UniProt O60925)
SH-tagged PFDN5 (human) = SH-tagged PFDN5 (human) (UniProt Q99471)
SH-tagged VBP1 (human) = SH-tagged VBP1 (human) (UniProt P61758)

For ASDURF (from UniProt L0R819 1-96), the binding [1] was “binds”, the binding (SH-tagged UXT (human) [2]) was “binds” and the binding [3] was “binds”. The binding (SH-tagged PIH1D1 (human)) was “binds”, the binding (SH-tagged RPAP3 (human)) was “binds” and the binding (SH-tagged RUVBL1 (human)) was “binds”. The binding (SH-tagged RUVBL2 (human)) was “binds”, the binding (SH-tagged UXT (human) [4]) was “binds” and the binding [5] was “binds”.
HSP90AB1 (from UniProt P08238 1-724) was tested, and the binding [6] was “binds” and the binding [7] was “binds”.
HSP90B4P (from UniProt Q58FF6 1-505) was tested, and the binding [6] was “binds” and the binding [7] was “binds”.
With HSPA1L (from UniProt P34931 1-641) the binding [6] was “binds” and the binding [7] was “binds”.
With “PDRG1 (endogenous prey) (from UniProt Q9NUG6 1-133)” the binding (SH-tagged PFDN1 (human)) was “binds”, the binding [1] was “binds” and the binding (SH-tagged PFDN5 (human)) was “binds”. For the same substance, the binding (SH-tagged UXT (human) [2]) was “binds” and the binding (SH-tagged VBP1 (human)) was “binds”.
For “PFDN1 (endogenous prey) (from UniProt O60925 1-122)”, the binding [1] was “binds” and the binding (SH-tagged UXT (human) [2]) was “no binding”.
For “PFDN2 (endogenous prey) (from UniProt Q9UHV9 1-154)”, the binding (SH-tagged UXT (human) [2]) was “binds”.
In the case of “PFDN4 (endogenous prey) (from UniProt Q9NQP4 1-134)”, the binding [1] is reported as “binds” and the binding (SH-tagged UXT (human) [2]) is reported as “no binding”.
“PFDN5 (endogenous prey) (from UniProt Q99471 1-154)” was tested, and the binding [1] was “binds”.
In the case of “PFDN6 (endogenous prey) (from UniProt O15212 1-129)”, the binding [1] is reported as “binds” and the binding (SH-tagged UXT (human) [2]) is reported as “binds”.
In the case of “RUVBL1 (endogenous prey) (from UniProt Q9Y265 1-456)”, the binding [1] is reported as “binds” and the binding (SH-tagged UXT (human) [2]) is reported as “binds”.
With “VBP1 (endogenous prey) (from UniProt P61758 1-197)” the binding (SH-tagged UXT (human) [2]) was “no binding”.
